Reference: PubChem BioAssay AID2685 (National Center for Advancing Translational Sciences (NCATS), 2010)
Some of the results follow. The main result of the screen is listed elsewhere. These columns were measured beside it and carry no call. The list favours compounds with an active or inconclusive main result. The note in brackets gives the kind of curve behind each potency; many fits are weak.

Experiment: qHTS Assay for Lipid Storage Modulators in Drosophila S3 Cells;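 for cell number change: cells counted by Cell Tracker Red CMTPX staining in the red channel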
Conditions: BODIPY lipid droplet fluorescence, 18-24 h; for cell number change: measured here: cell count max response, cells fed with added oleic acid
How it was run: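 Laser-scanning cytometry quantifies lipid droplet accumulation (500–530 nm total intensity; droplet/cell object ratio) in oleic acid-fed (400 uM added) Drosophila S3 cells treated with a concentration series. 20 uM Triacsin C defined 100% inhibition.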

[1] = measured here: cell number channel AC50, cells fed with added oleic acid
[2] = measured here: lipid fluorescence (Fed channel) AC50, cells fed with added oleic acid

Row | SMILES | cell number change | AC50 [1] | AC50 [2]
1 | Nc1[nH]n(-c2ccccc2)c(=O)c1N=Nc1ccccc1 | -41.5% | 29.1 µM [falling, single point] | 29.1 µM [falling, single point]
2 | Cc1ccc(C(=O)c2cc(C)sc2N)cc1 | -32% | 29.1 µM [falling, single point] | –
3 | COC(=O)C(CC(=O)c1ccccc1)CC(=O)c1ccccc1 | 10.6% | – | –
4 | CCCn1c(=O)n(CC(=O)NCC2CCCO2)c(=O)c2c3c(sc21)COC(C)(C)C3 (stereo not given) | 6.27% | – | 29.1 µM [rising, single point]
5 | COCCCN(C(=S)NC(=O)c1ccc(Br)cc1)c1c(N)n(Cc2ccccc2)c(=O)[nH]c1=O | 24.1% | – | 5.8 µM [falling, partial curve, poor fit]
6 | CCOC(=O)c1ccc(NC(=O)c2ccccc2)cc1 | 2.51% | – | 18.4 µM [rising, single point]
7 | COc1cccc(OCCOc2cccc(/C=N/n3cnnc3)c2)c1 | 77.5% | 9.2 µM [rising, partial curve, poor fit] | 13 µM [rising, partial curve]
8 | CCN(CC)CCn1c(NCc2nc3ccccc3n2Cc2ccccc2)nc2ccccc21 | -0.59% | – | –
9 | COC(=O)c1nc2n(n1)C(c1cc(OC)ccc1OC)C(C(=O)OC1CCCCC1)=C(C)N2 (stereo not given) | -17% | – | 29.1 µM [falling, single point]
10 | COc1cc(/C=N/NC(N)=S)ccc1OCC(=O)Nc1ccc(C)cc1 | -35.3% | 32.6 µM [falling, single point] | –
11 | Cc1cc(NC(=O)CSc2ncnc3sc4c(c23)CCC(C)C4)no1 (stereo not given) | 22.7% | – | 3.66 µM [rising, single point]
12 | CSc1ccccc1NC(=O)COC(=O)Cc1cccs1 | -31.9% | 22.4 µM [falling, partial curve] | 35.5 µM [falling, single point]
13 | CC1(NC(=O)Cc2csc(-c3cccc(Cl)c3)n2)CCS(=O)(=O)C1 (stereo not given) | 40.7% | 13 µM [rising, partial curve, poor fit] | 0.00461 µM [rising, full curve, poor fit]
14 | COc1ccccc1NC(=O)c1ccc(CS(=O)(=O)c2ccc(C)cc2)cc1 | 7.53% | – | –
15 | COc1ccc2oc(C(=O)OCC(=O)NCC3CCCO3)c(C)c2c1 (stereo not given) | – | 7.31 µM [rising, single point] | 8.2 µM [rising, partial curve, poor fit]
16 | COc1ccc(NC(=O)c2cc(-c3ccco3)nc3ccccc23)cc1S(=O)(=O)N1CCOCC1 | -15.9% | 0.651 µM [falling, full curve, poor fit] | –
17 | Cc1cccc(-n2c(N)cc(=O)[nH]c2=S)c1C | -3.94% | – | 32.6 µM [falling, single point]
18 | Cc1c(CC(=O)N2CCC(C(=O)O)CC2)c(=O)oc2cc3c(cc12)CCC1(CCCCC1)O3 | 13% | – | 6.51 µM [rising, single point]
19 | Cc1ccc(Oc2ccc(-c3nc(N)nc(N)n3)cc2)cc1C | -27.3% | 3.66 µM [falling, full curve, poor fit] | 29.1 µM [falling, single point]

No new results follow: an excerpt of the list.
Row | SMILES | cell number change | AC50 [1] | AC50 [2]
3 | COC(=O)C(CC(=O)c1ccccc1)CC(=O)c1ccccc1 | 10.6% | – | –
4 | CCCn1c(=O)n(CC(=O)NCC2CCCO2)c(=O)c2c3c(sc21)COC(C)(C)C3 (stereo not given) | 6.27% | – | 29.1 µM [rising, single point]
5 | COCCCN(C(=S)NC(=O)c1ccc(Br)cc1)c1c(N)n(Cc2ccccc2)c(=O)[nH]c1=O | 24.1% | – | 5.8 µM [falling, partial curve, poor fit]
6 | CCOC(=O)c1ccc(NC(=O)c2ccccc2)cc1 | 2.51% | – | 18.4 µM [rising, single point]
7 | COc1cccc(OCCOc2cccc(/C=N/n3cnnc3)c2)c1 | 77.5% | 9.2 µM [rising, partial curve, poor fit] | 13 µM [rising, partial curve]
8 | CCN(CC)CCn1c(NCc2nc3ccccc3n2Cc2ccccc2)nc2ccccc21 | -0.59% | – | –
9 | COC(=O)c1nc2n(n1)C(c1cc(OC)ccc1OC)C(C(=O)OC1CCCCC1)=C(C)N2 (stereo not given) | -17% | – | 29.1 µM [falling, single point]
10 | COc1cc(/C=N/NC(N)=S)ccc1OCC(=O)Nc1ccc(C)cc1 | -35.3% | 32.6 µM [falling, single point] | –
11 | Cc1cc(NC(=O)CSc2ncnc3sc4c(c23)CCC(C)C4)no1 (stereo not given) | 22.7% | – | 3.66 µM [rising, single point]
12 | CSc1ccccc1NC(=O)COC(=O)Cc1cccs1 | -31.9% | 22.4 µM [falling, partial curve] | 35.5 µM [falling, single point]

(more compounds)

Row | SMILES | cell number change | AC50 [1] | AC50 [2]
20 | OC(COc1ccccc1)Cn1c2ccccc2c2ccccc21 (stereo not given) | -29.3% | – | 20.6 µM [falling, partial curve]
21 | COc1ccc(N2C(=O)c3ccccc3NC2c2ccc(OC)c(CSc3ccccn3)c2)cc1 (stereo not given) | – | – | 2.06 µM [falling, partial curve, poor fit]
22 | Cc1ccc(C)c(Oc2ccc(S(=O)(=O)N3CCN(C)CC3)cn2)c1 | -2.09% | – | –
23 | O=S(=O)(Nc1ccncc1)c1ccccc1 | -5.49% | – | 29.1 µM [falling, single point]
24 | COc1ccc(C(=O)N/N=C/c2ccc(OC)c(COc3ccccc3)c2)cc1 | 26.5% | 1.64 µM [falling, partial curve] | 29.1 µM [rising, single point]
25 | CCOc1ccc(N2CC(C(=O)Nc3cc(Cl)ccc3-n3cncn3)CC2=O)cc1 (stereo not given) | 18.3% | 0.92 µM [rising, partial curve, poor fit] | 6.51 µM [rising, single point]
26 | Cc1nc(NC(=O)Nc2ccc(Cl)cc2)sc1C | 60.1% | 13 µM [rising, partial curve] | –
27 | O=C1CCCC(NCCCCCCNC2=C([N+](=O)[O-])C(=O)CCC2)=C1[N+](=O)[O-] | -24.1% | 4.11 µM [falling, full curve, poor fit] | 14.6 µM [falling, partial curve]
28 | COc1ccc(Cl)cc1C(=O)O/N=C(\N)c1ccc(Cl)cc1 | -2.73% | – | 20.6 µM [rising, single point]
29 | Cc1ccc2c(c1)N(CC(=O)N1CCCC(C)C1)C(=O)CO2 (stereo not given) | 5.13% | – | –
30 | CCc1noc(C)c1C(=O)N1CCN(S(=O)(=O)c2ccc(C)cc2)CC1 | 17.7% | – | –
31 | Cc1sc2ncnc(N3CCOCC3)c2c1C | – | – | 6.51 µM [rising, single point]
32 | O=S(=O)(NCCc1csc(-c2cccnc2)n1)c1ccc2c(c1)OCCO2 | – | – | 6.51 µM [rising, single point]
33 | Cc1ccc(CNS(=O)(=O)c2ccc3c(c2)n(C)c(=O)n3C)cc1 | -16.3% | – | 20.6 µM [falling, partial curve, poor fit]
34 | Cc1cccc(C)c1N(Cc1ccccc1F)S(C)(=O)=O | 1.25% | – | –
35 | CC(C)(C)c1ccc(S(=O)(=O)N2C=CC(C(F)(F)F)=NCC2)cc1 | -24.7% | – | 29.1 µM [rising, single point]
36 | COCCNC(=O)c1ccccc1-c1ccccc1C(=O)O | 6.47% | – | 0.92 µM [falling, full curve, poor fit]
37 | Cc1ccc2cc(CCNC(=O)c3cccc([N+](=O)[O-])c3)c(=O)[nH]c2c1C | 32% | 10.3 µM [rising, partial curve] | –
38 | O=C(NCc1ccc(S(=O)(=O)NC2CCCCC2)s1)c1ccccc1 | -7.8% | 0.184 µM [falling, full curve, poor fit] | 0.146 µM [falling, full curve, poor fit]
